Test results as given in article PMC5679597.
Results are given in words; binding and its absence hold for the method and conditions named. In cells and extracts the contact can be indirect. Here binding means that the protein was enriched with, or labelled near, the bait; the list need not be complete. Where a sequence is shown, tags or fusion partners need not be part of it.

T1: GFP-tagged LNX1p80 (Ligand of Numb protein X1, p80 isoform) (mouse) (UniProt O70263)
T1 sequence: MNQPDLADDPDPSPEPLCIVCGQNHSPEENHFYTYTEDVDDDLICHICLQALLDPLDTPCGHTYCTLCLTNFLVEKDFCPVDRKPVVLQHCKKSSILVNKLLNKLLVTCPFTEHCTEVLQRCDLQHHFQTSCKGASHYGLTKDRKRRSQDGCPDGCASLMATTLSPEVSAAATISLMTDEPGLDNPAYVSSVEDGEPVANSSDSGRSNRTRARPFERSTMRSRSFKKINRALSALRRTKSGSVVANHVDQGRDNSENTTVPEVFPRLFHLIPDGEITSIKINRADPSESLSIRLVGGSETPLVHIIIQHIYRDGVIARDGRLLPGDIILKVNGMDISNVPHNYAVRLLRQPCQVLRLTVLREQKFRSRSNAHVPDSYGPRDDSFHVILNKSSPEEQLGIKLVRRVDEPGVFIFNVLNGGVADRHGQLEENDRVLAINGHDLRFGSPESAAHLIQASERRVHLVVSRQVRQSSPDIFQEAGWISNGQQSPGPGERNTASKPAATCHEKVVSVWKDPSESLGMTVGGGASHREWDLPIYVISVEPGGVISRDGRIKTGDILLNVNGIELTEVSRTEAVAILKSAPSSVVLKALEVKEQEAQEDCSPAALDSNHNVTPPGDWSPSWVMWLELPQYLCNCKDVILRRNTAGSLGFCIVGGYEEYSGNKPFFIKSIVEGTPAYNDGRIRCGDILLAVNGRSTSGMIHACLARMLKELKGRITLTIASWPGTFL


target: T1, GFP-tagged LNX1p80 (Ligand of Numb protein X1, p80 isoform) (mouse); assay: affinity purification with mass spectrometry; GFP-LNX1p80 complexes purified on magnetic GFP-Trap beads from stably transfected HEK 293 cells; gel slices, nano-LC MS/MS; proteins also found with GFP alone removed; Mascot protein score cut-off 70

Binder	binding
FLOT2, endogenous (protein, UniProt Q14254 1-428) MGNCHTVGPNEALVVSGGCCGSDYKQYVFGGWAWAWWCISDTQRISLEIMTLQPRCEDVETAEGVALTVTGVAQVKIMTEKELLAVACEQFLGKNVQDIKNVVLQTLEGHLRSILGTLTVEQIYQDRDQFAKLVREVAAPDVGRMGIEILSFTIKDVYDKVDYLSSLGKTQTAVVQRDADIGVAEAERDAGIREAECKKEMLDVKFMADTKIADSKRAFELQKSAFSEEVNIKTAEAQLAYELQGAREQQKIRQEEIEIEVVQRKKQIAVEAQEILRTDKELIATVRRPAEAEAHRIQQIAEGEKVKQVLLAQAEAEKIRKIGEAEAAVIEAMGKAEAERMKLKAEAYQKYGDAAKMALVLEALPQIAAKIAAPLTKVDEIVVLSGDNSKVTSEVNRLLAELPASVHALTGVDLSKIPLIKKATGVQV	binds
FLOT1, endogenous (protein, UniProt O75955 1-427) MFFTCGPNEAMVVSGFCRSPPVMVAGGRVFVLPCIQQIQRISLNTLTLNVKSEKVYTRHGVPISVTGIAQVKIQGQNKEMLAAACQMFLGKTEAEIAHIALETLEGHQRAIMAHMTVEEIYKDRQKFSEQVFKVASSDLVNMGISVVSYTLKDIHDDQDYLHSLGKARTAQVQKDARIGEAEAKRDAGIREAKAKQEKVSAQYLSEIEMAKAQRDYELKKAAYDIEVNTRRAQADLAYQLQVAKTKQQIEEQRVQVQVVERAQQVAVQEQEIARREKELEARVRKPAEAERYKLERLAEAEKSQLIMQAEAEAASVRMRGEAEAFAIGARARAEAEQMAKKAEAFQLYQEAAQLDMLLEKLPQVAEEISGPLTSANKITLVSSGSGTMGAAKVTGEVLDILTRLPESVERLTGVSISQVNHKPLRTA	binds
PEX6, endogenous (protein, UniProt Q13608 1-980) MALAVLRVLEPFPTETPPLAVLLPPGGPWPAAELGLVLALRPAGESPAGPALLVAALEGPDAGTEEQGPGPPQLLVSRALLRLLALGSGAWVRARAVRRPPALGWALLGTSLGPGLGPRVGPLLVRRGETLPVPGPRVLETRPALQGLLGPGTRLAVTELRGRARLCPESGDSSRPPPPPVVSSFAVSGTVRRLQGVLGGTGDSLGVSRSCLRGLGLFQGEWVWVAQARESSNTSQPHLARVQVLEPRWDLSDRLGPGSGPLGEPLADGLALVPATLAFNLGCDPLEMGELRIQRYLEGSIAPEDKGSCSLLPGPPFARELHIEIVSSPHYSTNGNYDGVLYRHFQIPRVVQEGDVLCVPTIGQVEILEGSPEKLPRWREMFFKVKKTVGEAPDGPASAYLADTTHTSLYMVGSTLSPVPWLPSEESTLWSSLSPPGLEALVSELCAVLKPRLQPGGALLTGTSSVLLRGPPGCGKTTVVAAACSHLGLHLLKVPCSSLCAESSGAVETKLQAIFSRARRCRPAVLLLTAVDLLGRDRDGLGEDARVMAVLRHLLLNEDPLNSCPPLMVVATTSRAQDLPADVQTAFPHELEVPALSEGQRLSILRALTAHLPLGQEVNLAQLARRCAGFVVGDLYALLTHSSRAACTRIKNSGLAGGLTEEDEGELCAAGFPLLAEDFGQALEQLQTAHSQAVGAPKIPSVSWHDVGGLQEVKKEILETIQLPLEHPELLSLGLRRSGLLLHGPPGTGKTLLAKAVATECSLTFLSVKGPELINMYVGQSEENVREVFARARAAAPCIIFFDELDSLAPSRGRSGDSGGVMDRVVSQLLAELDGLHSTQDVFVIGATNRPDLLDPALLRPGRFDKLVFVGANEDRASQLRVLSAITRKFKLEPSVSLVNVLDCCPPQLTGADLYSLCSDAMTAALKRRVHDLEEGLEPGSSALMLTMEDLLQAAARLQPSVSEQELLRYKRIQRKFAAC	binds
DZIP3, endogenous (protein, UniProt Q86Y13 1-1208) MDSLPDEFFVRHPAVEDQRKEETENKLEKSSGQLNKQENDIPTDLVPVNLLLEVKKLLNAINTLPKGVVPHIKKFLQEDFSFQTMQREVAANSQNGEEIVPALTLRFLITQLEAALRNIQAGNYTAHQINIGYYLTLLFLYGVALTERGKKEDYTEAENKFLVMKMMIQENEICENFMSLVYFGRGLLRCAQKRYNGGLLEFHKSLQEIGDKNDHWFDIDPTEDEDLPTTFKDLLNNFIKTTESNIMKQTICSYLDCERSCEADILKNTSYKGFFQLMCSKSCCVYFHKICWKKFKNLKYPGENDQSFSGKKCLKEGCTGDMVRMLQCDVPGIVKILFEVVRKDEYITIENLGASYRKLISLKITDTDIRPKISLKFNTKDEMPIFKLDYNYFYHLLHIIIISGTDIVRQIFDEAMPPPLLKKELLIHKNVLESYYNHLWTNHPLGGSWHLLYPPNKELPQSKQFDLCLLLALIKHLNVFPAPKKGWNMEPPSSDISKSADILRLCKYRDILLSEILMNGLTESQFNSIWKKVSDILLRLGMMQEDIDKVKENPIENISLDYHQLSVYLGIPVPEIIQRMLSCYQQGIALQSITGSQRIEIEELQNEEEELSPPLMEYNINVKSHPEIQFAEINKDGTSIPSESSTESLKDLQEVKSKQRKKKKTKNKKNKDSKEDQVPYVVEKEEQLRKEQANPHSVSRLIKDDASDVQEDSAMEDKFYSLDELHILDMIEQGSAGKVTTDYGETEKERLARQRQLYKLHYQCEDFKRQLRTVTFRWQENQMQIKKKDKIIASLNQQVAFGINKVSKLQRQIHAKDNEIKNLKEQLSMKRSQWEMEKHNLESTMKTYVSKLNAETSRALTAEVYFLQCRRDFGLLHLEQTEKECLNQLARVTHMAASNLESLQLKAAVDSWNAIVADVRNKIAFLRTQYNEQINKVKQGFALSTLPPVQLPPPPPSPEILMQQFLGRPLVKESFFRPILTVPQMPAVCPGVVSATGQPRAPLMTGIAWALPAPVGDAVPPSAGLRSDPSIMNWERITDRLKTAFPQQTRKELTDFLRKLKDAYGKSLSELTFDEIVCKISQFIDPKKSQSQGKSVSNVNCVSPSHSPSQPDAAQPPKPAWRPLTSQGPATWEGASNPDEEEEEEEPCVICHENLSPENLSVLPCAHKFHAQCIRPWLMQQGTCPTCRLHVLLPEEFPGHPSRQLPKI	binds
MARS, endogenous (protein, UniProt P56192 1-900) MRLFVSDGVPGCLPVLAAAGRARGRAEVLISTVGPEDCVVPFLTRPKVPVLQLDSGNYLFSTSAICRYFFLLSGWEQDDLTNQWLEWEATELQPALSAALYYLVVQGKKGEDVLGSVRRALTHIDHSLSRQNCPFLAGETESLADIVLWGALYPLLQDPAYLPEELSALHSWFQTLSTQEPCQRAAETVLKQQGVLALRPYLQKQPQPSPAEGRAVTNEPEEEELATLSEEEIAMAVTAWEKGLESLPPLRPQQNPVLPVAGERNVLITSALPYVNNVPHLGNIIGCVLSADVFARYSRLRQWNTLYLCGTDEYGTATETKALEEGLTPQEICDKYHIIHADIYRWFNISFDIFGRTTTPQQTKITQDIFQQLLKRGFVLQDTVEQLRCEHCARFLADRFVEGVCPFCGYEEARGDQCDKCGKLINAVELKKPQCKVCRSCPVVQSSQHLFLDLPKLEKRLEEWLGRTLPGSDWTPNAQFITRSWLRDGLKPRCITRDLKWGTPVPLEGFEDKVFYVWFDATIGYLSITANYTDQWERWWKNPEQVDLYQFMAKDNVPFHSLVFPCSALGAEDNYTLVSHLIATEYLNYEDGKFSKSRGVGVFGDMAQDTGIPADIWRFYLLYIRPEGQDSAFSWTDLLLKNNSELLNNLGNFINRAGMFVSKFFGGYVPEMVLTPDDQRLLAHVTLELQHYHQLLEKVRIRDALRSILTISRHGNQYIQVNEPWKRIKGSEADRQRAGTVTGLAVNIAALLSVMLQPYMPTVSATIQAQLQLPPPACSILLTNFLCTLPAGHQIGTVSPLFQKLENDQIESLRQRFGGGQAKTSPKPAVVETVTTAKPQQIQALMDEVTKQGNIVRELKAQKADKNEVAAEVAKLLDLKKQLAVAEGKPPEAPKGKKKK	binds

Continued, values first:

binding	Binder
binds	TMED5, endogenous (protein, UniProt Q9Y3A6 28-229) FTPSLDSDFTFTLPAGQKECFYQPMPLKASLEIEYQVLDGAGLDIDFHLASPEGKTLVFEQRKSDGVHTVETEVGDYMFCFDNTFSTISEKVIFFELILDNMGEQAQEQEDWKKYITGTDILDMKLEDILESINSIKSRLSKSGHIQTLLRAFEARDRNIQESNFDRVNFWSMVNLVVMVVVSAIQVYMLKSLFEDKRKSRT
binds	TMED9, endogenous (protein, UniProt Q9BVK6 38-235) LYFHIGETEKKCFIEEIPDETMVIGNYRTQLYDKQREEYQPATPGLGMFVEVKDPEDKVILARQYGSEGRFTFTSHTPGEHQICLHSNSTKFSLFAGGMLRVHLDIQVGEHANDYAEIAAKDKLSELQLRVRQLVEQVEQIQKEQNYQRWREERFRQTSESTNQRVLWWSILQTLILVAIGVWQMRHLKSFFEAKKLV
binds	TMED4, endogenous (protein, UniProt Q7Z7H5 30-227) LYFHIGETEKRCFIEEIPDETMVIGNYRTQMWDKQKEVFLPSTPGLGMHVEVKDPDGKVVLSRQYGSEGRFTFTSHTPGDHQICLHSNSTRMALFAGGKLRVHLDIQVGEHANNYPEIAAKDKLTELQLRARQLLDQVEQIQKEQDYQRYREERFRLTSESTNQRVLWWSIAQTVILILTGIWQMRHLKSFFEAKKLV
